# PubChem BioAssay AID504791 | Drosophila RNAi Screening Center | 2011
# Screen: 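Genes whose knock-down strengthens or weakens small-RNA reporter silencing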 (primary screen)
# System: Drosophila S2-derived reporter cells
# Reagent: long dsRNA against Drosophila genes, about 150-250 ng dsRNA per well (siRNA assay); about 80-120 ng (miRNA assay)
# Timing: about 5 days (siRNA assay); about 4 days (miRNA assay)
# Challenge: copper sulfate induction of reporters: 25 µM (siRNA assay); 200 mM stated (miRNA assay), 1-2 days before reading
# Detection: 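Per-well ratio of Renilla over firefly light, expressed relative to that plate's average ratio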
# Hit rule: 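First-pass picks had plate-scaled ratios over 1.5 for the siRNA assay, over 1.6 for the miRNA assay, or under 0.6; two distinct dsRNAs had to score alike on retest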
# The deposit covers about 23,000 reagents; this is an unselected part of those that have a named target and a result. Over the whole deposit, 199 (0.86%) were called active. 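Plate-scaled ratios behind the calls are not deposited; printed light signals are raw; many rows marked increased or decreased are still called inactive.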 Entries without a mark were called inactive. Reagents against one gene are numbered here. A plus sign joins genes that one reagent is predicted to hit. Not stated in the record: the direction of the score.
target gene,reagent,stable siRNA reporter change,miRNA reporter change,"stable assay Renilla, run 1 (luminescence)","stable assay firefly, run 1 (luminescence)"
CG34159,1,,,6399,2.91e5
CG34159,2,,,4986,3.24e5
CG13159,1,,,4019,4.64e5
Syngr (Synaptogyrin),1,,,5908,3.17e5
Rpp20 + CG33932,1,,,5983,4.94e5
Ir51a (Ionotropic receptor 51a),1,,,7815,4.41e5
Takl2 (Tak1-like 2),1,,,5970,2.74e5
Oatp58Dc (Organic anion transporting polypeptide 58Dc),1,,,11801,1.17e6
CG13689,1,,,8335,4.82e5
CG32507,1,,,4615,4.04e5
Sln (Silnoon),1,,,5950,3.32e5
Sprn (Spermitin),1,,,6108,4.06e5
CG18304,1,,,8641,5.35e5
mtrm (matrimony),1,,,5878,2.49e5
mtrm (matrimony),2,,,5187,4.08e5
CG34290,1,,,5607,3.86e5
CG32036,1,,,7655,4.97e5
Elba3 (Early boundary activity 3),1,,,12012,8.45e5
CG10877,1,,,8044,3.97e5
CG8036,1,,,6499,3.40e5
Ndf (Nucleosome-destabilizing factor),1,,,27959,6.00e5
OdsH (Ods-site homeobox),1,,,5991,5.29e5
TBC1d7 (TBC1 domain family member 7),1,,,7558,2.90e5
CG1773,1,,,7538,3.87e5
CG10962,1,,,7710,3.54e5
tor (torso),1,,,6350,3.47e5
CG16989,1,,,6240,3.29e5
Rab32,1,,,4259,4.00e5
Rab32,2,,,9871,5.15e5
Cpr49Ad (Cuticular protein 49Ad),1,,,5738,2.80e5
cyp33 + CG34194,1,,,5695,3.72e5
l(3)04053 (lethal (3) 04053),1,,,4820,3.13e5
CG4239,1,,reporter ratio lowered past the hit cutoff,7411,6.52e5
MED17 (Mediator complex subunit 17),1,,,5579,2.38e5
ND-B16.6 (NADH dehydrogenase (ubiquinone) B16.6 subunit),1,,,6071,4.82e5
ND-B16.6 (NADH dehydrogenase (ubiquinone) B16.6 subunit),2,,,3659,3.86e5
CG16789,1,,,7220,3.85e5
CG30036,1,,,10461,4.62e5
CG15465,1,,,6015,2.68e5

Reformatted: 8 of the entries above
target gene	reagent	stable siRNA reporter change	miRNA reporter change	stable assay Renilla, run 1 (luminescence)	stable assay firefly, run 1 (luminescence)
CG34159	1			6399	2.91e5
CG34159	2			4986	3.24e5
CG13159	1			4019	4.64e5
Syngr (Synaptogyrin)	1			5908	3.17e5
Rpp20 + CG33932	1			5983	4.94e5
Ir51a (Ionotropic receptor 51a)	1			7815	4.41e5
Takl2 (Tak1-like 2)	1			5970	2.74e5
Oatp58Dc (Organic anion transporting polypeptide 58Dc)	1			11801	1.17e6

The results go on:
target gene,reagent,stable siRNA reporter change,miRNA reporter change,"stable assay Renilla, run 1 (luminescence)","stable assay firefly, run 1 (luminescence)"
CG6610,1,,,7825,5.29e5
Or33c (Odorant receptor 33c),1,,,7215,4.47e5
CG14082,1,,,7107,4.44e5
Unc50 (Unc50 RNA binding protein),1,,,7210,4.51e5
sgg (shaggy),1,,,6912,3.46e5
sgg (shaggy),2,,,6024,3.08e5
sgg (shaggy),3,,,5870,2.77e5
CG1090,1,,,8943,4.29e5
CG1090,2,,,8887,4.40e5
Pef (Peflin),1,,,7727,3.31e5
Jupiter,1,,,8032,5.12e5
Jupiter,2,,,5978,3.60e5
Jupiter,3,,,6275,3.23e5
t-Grip84 (testis-specific gamma-tubulin ring protein 84),1,,,6103,3.88e5
Crk (Crk oncogene),1,,,8249,5.40e5
Acp36DE (Accessory gland protein 36DE),1,,,7383,4.08e5
CG7342,1,,,8274,3.62e5
Dhc16F (Dynein heavy chain at 16F),1,,,5844,4.14e5
CG16772,1,,,6735,4.03e5
CG14563,1,,,6066,4.44e5
RpL41 (Ribosomal protein L41),1,,,5355,6.45e5
CG6689,1,,,8871,4.19e5
CG15772,1,,,5159,3.04e5
pip (pipe),1,,,6592,3.09e5
DEF8 (differentially expressed in FDCP 8 homolog),1,,,7223,3.54e5
CG14668,1,,,6863,3.40e5
Ald2 (Aldolase 2),1,,,7411,4.18e5
alphaCOP (Coat Protein (coatomer) alpha),1,,,6159,1.95e5
Tsp66A + CG42661 + CG42660,1,,,7308,4.62e5
Sem1 (Suppressor of exocyst mutations 1),1,,,14675,9.73e5
rho-4 (rhomboid-4),1,,,7075,4.10e5
rho-4 (rhomboid-4),2,,,5591,5.33e5
CG32487,1,,,8552,4.47e5
veli,1,,,5230,3.31e5
"mAChR-A (muscarinic Acetylcholine Receptor, A-type)",1,,,5702,3.82e5
CG34045,1,,,5703,5.89e5
AnxB9 (Annexin B9),1,,,7967,2.50e5
mRpL30 (mitochondrial ribosomal protein L30),1,,,5132,3.02e5
boi,1,,,6320,3.54e5
boi,2,,,7755,3.94e5
NaPi-III (Na[+]-dependent inorganic phosphate cotransporter type III),1,,,8528,4.47e5
NaPi-III (Na[+]-dependent inorganic phosphate cotransporter type III),2,reporter ratio raised past the hit cutoff,,4435,1.73e5
NaPi-III (Na[+]-dependent inorganic phosphate cotransporter type III),3,,,4424,3.91e5
CG10910,1,,,5244,4.11e5
